From article PMC7977470
Results are given in words; binding and its absence hold for the method and conditions named. Binding seen in cells or lysates may run through a third protein. A yes stands for co-enrichment or nearness to the bait. Other partners may have been found.

Target: T1, kallikrein-related peptidase 8 (KLK8) in rat myocardium (not stated (in rat myocardium; species of the KLK8 transgene not told)) (UniProt O88780)
T1 sequence: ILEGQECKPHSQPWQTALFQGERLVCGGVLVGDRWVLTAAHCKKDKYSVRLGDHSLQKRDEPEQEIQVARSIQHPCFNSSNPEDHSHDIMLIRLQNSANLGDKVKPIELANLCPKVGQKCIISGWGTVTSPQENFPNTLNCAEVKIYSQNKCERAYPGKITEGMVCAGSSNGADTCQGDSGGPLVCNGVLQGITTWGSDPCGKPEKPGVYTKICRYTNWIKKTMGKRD
Test: affinity purification with mass spectrometry; protein extract of the myocardium of KLK8 transgenic rats immunoprecipitated with anti-KLK8; SDS-PAGE, in-gel trypsin digestion, UPLC-MS/MS; search against the Rattus database (UniProtKB/Swiss-Prot)

binding: binds
B1: plakoglobin (rat) (protein, UniProt Q6P0K8 1-745)
chain: MEVMNLIEQPIKVTEWQQTYTYDSGIHSGVNTCVPSVSSKGLLDEDDTCGRQYTLKKTTTYTQGVPQSQGDLEYQMSTTARAKRVREAMCPGVSGEDSSLLLATQVEGQTTNLQRLAEPSQLLKSAIVHLINYQDDAELATRALPELTKLLNDEDPVVVTKAAMIVNQLSKKEASRRALMGSPQLVAAVVRTMQNTSDLDTARCTTSILHNLSHHREGLLAIFKSGGIPALVRMLSSPVESVLFYAITTLHNLLLYQEGAKMAVRLADGLQKMVPLLNKNNPKFLAITTDCLQLLAYGNQESKLIILANGGPQGLVQIMRNYSYEKLLWTTSRVLKVLSVCPSNKPAIVEAGGMQALGKHLTSNSPRLVQNCLWTLRNLSDVATKQEGLENVLKILVNQLSVDDVNVLTCATGTLSNLTCNNSKNKTLVTQNSGVEALIHAILRAGDKDDITEPAVCALRHLTSRHPEAEMAQNSVRLNYGIPAIVKLLNQPNQWPLVKATIGLIRNLALCPANHAPLQEAAVIPRLVQLLVKAHQDAQRHVAAGTQQPYTDGVRMEEIVEGCTGALHILARDPMNRMEIFRLNTIPLFVQLLYSSVENIQRVAAGVLCELAQDKEAADAIDAEGASAPLMELLHSRNEGTATYAAAVLFRISEDKNPDYRKRVSVELTNSLFKHDPAAWEAAQSMIPINEPYADDMDATYRPMYSSDVPLDPLDMHMDMDGDYPMDTYSDGLRPPYPAADHMLA
